Screen size: about 210,000 compounds; about 5,900 (2.8%) were called active. About 5% were inconclusive and are not listed. The call rests on the fitted dose curve; in most records, active means well fitted activation curve with a large enough effect; inconclusive means small, poorly fitted or top-dose-only effect; inactive means no such curve, though single readings can be large or run the other way. The entries are a selection whose mix differs from that of the whole data set. Entries without a call were filed so in the source.
Potency means the concentration at half of the fitted maximal effect.

The assay can be described thus: qHTS Assay for Enhancers of SMN2 Splice Variant Expression. Further: nearly all actives have a fitted effect of over 55% in size. On activity change, positive = activation: % of control where 0% means no effect. Conditions: HEK293 SMN2-luciferase splicing reporter, luminescence, 30-36 h; activity change, positive = activation: at 46.1 µM (top of the series) unless noted. A digest of the protocol: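 HEK293 cells carry an SMN2 minigene-luciferase reporter in which exon 7 inclusion puts luciferase in frame. Cells were seeded at 2000 cells/well, attached for 10-12 hours, then exposed to compounds for 30-36 hours at 37C before ONE-Glo luminescence.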
Background: Quantitative high-throughput screening tests each substance at several concentrations.
With `COc1ccccc1N1CCN(C(=O)c2ccoc2C)CC1`, the activity change, positive = activation was found to be 32.4%.

For `COc1cccc(N2CCN(Cc3nc(N)nc(N4CCCc5ccccc54)n3)CC2)c1`, the activity change, positive = activation is 32.4%.

For the compound `Cc1n[nH]c(C)c1S(=O)(=O)N1CCCC(C(=O)NCc2ccc(F)cc2)C1` (centres undefined), the activity change, positive = activation is -39.4%.

As to `C/C(Cl)=C/Cc1c(C)[nH]c2ccc(C)cc2c1=O`, the activity change, positive = activation is 32.9%.

For `CCCc1nnc(SCc2ccc(OC)cc2)n1N`, the activity change, positive = activation is 36.6%.

On to `CC1CCCC(C)N1C(=O)Cn1cc(/C=C2/C(=O)Nc3ccccc32)c2ccccc21` (centres undefined), for which the “activity change, positive = activation” value was inactive: -15.8%.

Consider `Cc1cc(NC(=O)c2ccccc2)ncc1NC(=O)c1ccco1`, for which the Potency is active: 8.91 µM.

Consider `COc1ccc(-c2cc(=NC(CC(C)C)C(=O)O)c3cc(C)ccc3o2)cc1` (centres undefined), for which the Potency is active: 11.2 µM.

`O=C(COC(=O)c1ccccc1Cc1ccccc1)Nc1ccc(SC(F)F)cc1`: the activity change, positive = activation was 57.9%.

Regarding `CCOC(=O)c1ccc(NC(=O)N2CCc3ccccc32)cc1`, the Potency was active: 15.8 µM.

Consider `COc1cccc(-c2cc(=O)c3ccc(OC)cc3o2)c1`, for which the Potency was active: 12.6 µM.

With `COc1nc(NCCO)nc(Nc2ccccc2F)n1`, the activity change, positive = activation amounted to 60.5%.

Turning to `O=C(Oc1c(Br)cc(Br)c2cccnc12)N1CCCCC1`, the activity change, positive = activation was -50.5%.

`Cn1cc(C(=O)Nc2ccc3c(c2)CCC3)cn1`: the activity change, positive = activation came out at 58.7%.

As to `O=C(OCC(=O)N1CCN(c2ccccc2)CC1)C1=COCCO1`, the activity change, positive = activation worked out at 36%.

For `COCCn1nnnc1C(c1cc2cc(C)ccc2[nH]c1=O)N1CCN(C2CCCCC2)CC1` (centres undefined), the activity change, positive = activation amounted to 30.1%.

Consider `COc1ccc(S(=O)(=O)c2cnc3ccc(Cl)cc3c2N2CCCCC2C)cc1` (centres undefined), for which the “activity change, positive = activation” value was inactive: -40.3%.

Take `Cc1nn(Cc2ccc(Cl)c(Cl)c2)c(C)c1NC(=O)c1noc2c1CCCCC2`: the “activity change, positive = activation” value is inactive: -46.5%.

As for `O=C(N/N=C/c1cn(-c2cccs2)nc1-c1ccccc1)c1ccccc1O`, the activity change, positive = activation was -64.8%.

Take `Cc1nc(CN(C)C(=O)c2cc(COc3ccc4ncccc4c3)on2)cs1`: the “activity change, positive = activation” value was inactive: -51%.

With `OC(COc1ccc2cc(Br)ccc2c1)CN1CCN(c2ccccn2)CC1` (centres undefined), the activity change, positive = activation is -53.1%.

As to `Cc1ccc(NC(=O)c2ccoc2C)cc1C`, the Potency was active: 15.8 µM.

Turning to `Cc1ccc2nc(SCC(=O)O)nc(C)c2c1`, the activity change, positive = activation is 47.7%.

Take `CCOC(=O)CSc1nc2c([nH]c3ccccc32)c(=O)n1C`: the activity change, positive = activation stood at 36.1%.

As for `CCOC(=O)Cc1nnc(NC(=O)c2ncn[nH]2)s1`, the activity change, positive = activation is 24.2%.

`COc1ccc(N2CCN(C(=O)c3ccc(NS(=O)(=O)c4cccs4)cc3)CC2)cc1`: the activity change, positive = activation was -58.5%.

`CC1=C(C(=O)OCCNC(=O)c2ccccc2O)C(c2ccccc2[N+](=O)[O-])C(C(=O)OCC2CCCO2)=C(C)N1` (centres undefined): the activity change, positive = activation is -38.2%.

`CC(C)(C)OC(=O)N/N=C/c1c[nH]c2ccccc12`: the activity change, positive = activation came out at 45.3%.

Regarding `Cc1cc(C)c(NC(=O)Cn2cnc3c(oc4ccccc43)c2=O)c(C)c1`, the activity change, positive = activation was -14%.

With `CC(/C=N/NC(=O)c1cccs1)=C\c1ccco1`, the Potency is active: 11.2 µM.

Consider `O=P(COCCCCCOCP(=O)(c1ccccc1)c1ccccc1)(c1ccccc1)c1ccccc1`, for which the “activity change, positive = activation” value was inactive: -58.9%.

Take `COc1ccc([N+](=O)[O-])cc1NC(=O)Nc1ccccc1`: the activity change, positive = activation is -46.5%.

Take `O=C(NC1=NCCS1)Nc1ccccc1`: the Potency was active: 10 µM.

Turning to `CCOc1ccc(OCCSc2nnnn2-c2ccccc2)cc1`, the activity change, positive = activation was -51%.

As to `CCN(C(=O)c1cc(Cl)ccc1OC)c1ccccc1C`, the activity change, positive = activation was -33.9%.

With `Cc1nc2ccc(NC(=O)N(C)c3ccccc3)cc2s1`, the Potency was active: 22.4 µM.

Turning to `S=C(Nc1ccc(Cl)cc1)NC1CC2CCCC(C1)N2C1CC1` (centres undefined), the “activity change, positive = activation” value is inactive: -55%.

Turning to `COc1ccc(-c2csc(Cc3nc(O)cs3)n2)cc1`, the Potency is active: 11.2 µM.

In the case of `O=C(c1ccccc1)C(CCC(CN1CCOCC1)C(=O)c1ccccc1)CN1CCOCC1` (centres undefined), the activity change, positive = activation was -97.7%.

Take `C=CCn1c(SCc2c(C)noc2C)nc2sc3c(c2c1=O)CCCCC3`: the activity change, positive = activation is -48.6%.

Consider `O=C(OCc1cnc(Cl)s1)c1cccc(Cl)c1`, for which the activity change, positive = activation is 13%.

For `CCn1cc(C(=O)N2CCN(c3ccccc3F)CC2)c(=O)c2cc(S(=O)(=O)N(C)C)ccc21`, the activity change, positive = activation came out at 34.6%.

On to `Cc1nc2c(-c3ccccc3)c[nH]n2c(=O)c1Cc1ccccc1`, for which the “activity change, positive = activation” value is inactive: -60%.

Take `O=C(O)c1c2c(nc3ccccc13)/C(=C/c1ccc(O)cc1)CC2`: the “activity change, positive = activation” value is inactive: -53.1%.

Regarding `S=c1[nH]c(-c2ccccc2)cn1/N=C/c1ccc(Br)cc1`, the activity change, positive = activation was 36.7%.

As to `CCc1cc(C(=O)Nc2cnn(Cc3ccccc3C)c2)no1`, the Potency is active: 17.8 µM.

In the case of `COc1ccc(C2Nc3ccccc3C(=O)N2c2ccc(C)cc2)cc1Cn1cc([N+](=O)[O-])cn1` (centres undefined), the Potency was active: 20 µM.

As to `COc1ccc(NC(=O)CN2c3cccc4cccc(c34)S2(=O)=O)c(OC)c1`, the activity change, positive = activation was -22.2%.

`COc1ccccc1/C=C/C(=O)OCC(=O)NCc1ccco1`: the activity change, positive = activation was 47%.

Take `COC(=O)C1CC(=O)c2ccsc2C1` (centres undefined): the activity change, positive = activation came to 6.84%.

As to `O=C(CCn1cccc1)Nc1ccc(OC(F)(F)F)cc1`, the activity change, positive = activation was -41.8%.

As to `COc1ccccc1N1CCN(C(=O)N2CCOCC2)CC1`, the activity change, positive = activation amounted to 44.2%.

Turning to `Cc1cc(C)c(S(=O)(=O)Nc2ccc3c(c2)CCC3)c(C)c1`, the activity change, positive = activation was -50.2%.

Turning to `CN(C)/C=C/C(=O)/C=C/c1ccc(Cl)cc1Cl`, the Potency was active: 20 µM.

(Values after PubChem BioAssay AID1458 (National Center for Advancing Translational Sciences (NCATS), 2008).)
